This is an account of results in publication PMC11984871, “Perillaldehyde Improves Parkinson‐Like Deficits by Targeting G3BP Mediated Stress Granule Assembly in Preclinical Models” (Advanced Science, 2025).

Protein sequences, listed by entry. Tags and fused reporters are not part of them.
UniProt Q9UBN7: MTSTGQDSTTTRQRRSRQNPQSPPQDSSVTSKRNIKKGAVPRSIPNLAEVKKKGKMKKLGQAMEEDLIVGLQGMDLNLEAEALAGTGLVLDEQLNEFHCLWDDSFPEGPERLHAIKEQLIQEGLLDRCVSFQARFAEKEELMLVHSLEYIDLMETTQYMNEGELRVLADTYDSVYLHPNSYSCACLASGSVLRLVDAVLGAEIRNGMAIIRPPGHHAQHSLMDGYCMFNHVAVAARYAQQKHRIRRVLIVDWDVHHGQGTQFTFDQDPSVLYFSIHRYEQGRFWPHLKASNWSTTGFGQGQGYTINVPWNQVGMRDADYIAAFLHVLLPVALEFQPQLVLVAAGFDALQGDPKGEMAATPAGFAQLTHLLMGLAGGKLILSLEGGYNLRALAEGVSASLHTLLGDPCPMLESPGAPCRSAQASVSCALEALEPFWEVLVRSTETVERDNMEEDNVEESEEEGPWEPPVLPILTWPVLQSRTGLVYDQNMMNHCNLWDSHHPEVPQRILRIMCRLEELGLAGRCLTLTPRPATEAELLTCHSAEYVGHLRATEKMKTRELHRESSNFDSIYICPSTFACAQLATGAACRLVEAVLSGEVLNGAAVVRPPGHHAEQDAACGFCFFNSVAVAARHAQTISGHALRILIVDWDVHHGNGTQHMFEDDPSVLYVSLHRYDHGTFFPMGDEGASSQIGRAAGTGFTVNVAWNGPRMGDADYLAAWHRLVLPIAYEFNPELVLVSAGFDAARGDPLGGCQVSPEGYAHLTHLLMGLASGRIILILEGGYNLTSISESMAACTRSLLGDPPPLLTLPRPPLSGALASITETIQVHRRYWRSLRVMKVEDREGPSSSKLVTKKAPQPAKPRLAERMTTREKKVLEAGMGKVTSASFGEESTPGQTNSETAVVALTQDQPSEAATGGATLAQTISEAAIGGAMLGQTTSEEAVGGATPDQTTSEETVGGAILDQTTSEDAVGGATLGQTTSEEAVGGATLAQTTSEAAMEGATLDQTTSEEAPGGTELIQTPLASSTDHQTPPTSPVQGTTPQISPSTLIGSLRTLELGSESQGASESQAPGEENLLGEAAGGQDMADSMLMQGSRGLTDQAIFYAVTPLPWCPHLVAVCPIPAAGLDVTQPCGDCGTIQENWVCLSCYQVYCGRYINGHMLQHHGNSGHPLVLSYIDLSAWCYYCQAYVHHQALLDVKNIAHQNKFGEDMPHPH
UniProt Q13283: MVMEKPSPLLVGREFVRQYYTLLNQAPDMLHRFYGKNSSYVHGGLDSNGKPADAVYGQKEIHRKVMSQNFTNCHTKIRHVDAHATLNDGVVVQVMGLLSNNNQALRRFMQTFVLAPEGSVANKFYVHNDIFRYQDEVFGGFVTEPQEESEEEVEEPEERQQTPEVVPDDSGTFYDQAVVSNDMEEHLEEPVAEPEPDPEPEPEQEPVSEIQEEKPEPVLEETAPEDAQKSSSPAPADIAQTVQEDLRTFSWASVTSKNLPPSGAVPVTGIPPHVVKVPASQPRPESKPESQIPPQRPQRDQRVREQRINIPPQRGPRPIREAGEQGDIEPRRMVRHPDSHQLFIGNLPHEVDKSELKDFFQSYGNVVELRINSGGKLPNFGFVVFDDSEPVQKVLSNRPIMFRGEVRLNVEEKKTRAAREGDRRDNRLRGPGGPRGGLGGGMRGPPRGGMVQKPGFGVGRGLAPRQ

No constants are given. Whether binding was seen depends on the method and setting. Binding seen in cells or lysates may run through a third protein. Some results given as binding are weak or reduced against the parent protein; the word gives no strength.

The target in assay [1] is Flag-HDAC6, expressed from pCS2-Flag-HDAC6 in SH-SY5Y cells (human (cloned from 293T cDNA)) (UniProt Q9UBN7). As to the kind of experiment: co-IP; SH-SY5Y cells transfected with mock vector or pCS2-Flag-HDAC6; pre-treated with DMSO or 100 × 10^−6 M PAE for 1 h, then DMSO or 100 × 10^−6 M 6-OHDA for 24 h; immunoprecipitation with anti-Flag; blot with anti-G3BP1.
In assay [2] the target is G3BP1, endogenous in SH-SY5Y cells (human (endogenous in SH-SY5Y)) (UniProt Q13283). As to the kind of experiment: co-IP; endogenous proteins of SH-SY5Y cells, untreated or treated with 100 × 10^−6 M 6-OHDA for 24 h; immunoprecipitation with an anti-G3BP1 antibody; blot with anti-HDAC6.
For assay [3], the target named is Flag-HDAC6 (histone deacetylase 6), expressed from pCS2-Flag-HDAC6 in HEK293T cells (human (cloned from 293T cDNA)) (UniProt Q9UBN7). In words: co-IP; HEK293T cells co-transfected; RIPA lysate; anti-Flag beads overnight at 4 °C; washed with PBS, 0.05% Tween-20; blot with anti-Myc; cells also treated with DMSO or 100 × 10^−6 M PAE for 1 h.

“G3BP1, endogenous in SH-SY5Y cells (from UniProt Q13283 1-466)”: the binding entry in assay [1] is “binds”.

Take “HDAC6, endogenous in SH-SY5Y cells (from UniProt Q9UBN7 1-1215) (enzyme)”: the binding result in assay [2] is reported as “binds”.

In the case of “Myc-G3BP1 (Ras GTPase-activating protein-binding protein 1), expressed from pCS2-Myc-G3BP1 in HEK293T cells (from UniProt Q13283 1-466)”, the binding entry in assay [3] was “binds”.
